In PubChem BioAssay AID1347076 (National Center for Advancing Translational Sciences (NCATS), 2019):
Values joined by “and” are separate entries in the source; they are usually repeats but may differ in a detail not shown here. Equal values may be shown once. About 13,000 (3.2%) of roughly 400,000 compounds were called active. The shares of active, inactive and inconclusive entries below differ from those in the screen. The call rests on the fitted dose curve; in most records, active means well fitted cell-killing curve with a large enough effect; inconclusive means small, poorly fitted or top-dose-only effect, or effect the other way; inactive means flat fitted curve, though single readings scatter. A potency beside an inconclusive call is a rough fit, not a confirmed value.

assay: qHTS assay for MDR1-selective chemotherapeutics: Primary screen using the drug-selected MDR subline cells KB-V1; details: KB-V1 MDR cells viability, CellTiter-Glo, 72 h; activity change, negative = cytotoxicity: at 46.1 µM (top of the series); further: nearly all actives have a fitted effect of over 60% in size
Outline: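 Potencies derive from concentration-effect curves fitted to normalized luminescence (CellTiter-Glo) of KB-V1 cells treated for 72 h at 37 degrees C in phenol-red-free DMEM containing 10% FBS.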
On the % scale 0 is the no-effect control and ±100 the full control effect; potency means the concentration at half of the fitted maximal effect.

Row | Structure (SMILES) | Potency | activity change, negative = cytotoxicity
1 | O=C1CCN(Cc2ccccc2)CCN1CCOc1ccccc1 | inconclusive: 18.4 µM [cytotoxic, single point] and inconclusive: 29.1 µM [cytotoxic, single point] | 
2 | CCCCN1CCC(COC(=O)c2cc(Cl)c(N)c3c2OCCO3)CC1 | inactive | 
3 | O=C(CSc1nnc(CNC(=O)C23CC4CC(CC(C4)C2)C3)n1-c1ccc(F)cc1)Nc1ccccc1 | inconclusive: 16.4 µM [cytotoxic, single point] | 
4 | CCN(CC)c1ccc2c(Cl)c(Br)c(=O)oc2c1 | inconclusive: 20.6 µM [cytotoxic, single point] | 
5 | Cc1cc(C)cc(NC(=O)C2CCCN(c3nnc(C)c4c(C)n(-c5ccccc5)nc34)C2)c1 (stereo not drawn) | inactive | 
6 | COc1ccc(OC)c(NC(=O)COC(=O)c2ccc(S(=O)(=O)N3CCOCC3)cc2)c1 | inconclusive: 16.4 µM [rising, partial curve] | 
7 | CCCc1nnc(NC(=O)c2c(O)c3cccc4c3n(c2=O)CCC4)s1 | inconclusive: 5.8 µM [cytotoxic, partial curve, poor fit] | 
8 | COc1cc(OC)cc(-c2nc3n(n2)C(c2ccccc2F)C(C(=O)Nc2cccnc2)=C(C)N3)c1 (stereo not drawn) | inconclusive: 8.2 µM [rising, partial curve, poor fit] | 
9 | CCOC(=O)C1C(=O)NC(SC)=C(C#N)C1c1ccccc1F (stereo not drawn) | active: 14.6 µM | 
10 | O=C(Nc1ccccc1OC(F)F)c1cc2c(s1)CCC2 | inactive | 
11 | O=C(Nc1ccc2c(c1)CCC2)C1CCN(c2c3c(nc4ncnn24)CCC3)CC1 | inconclusive: 14.6 µM [cytotoxic, partial curve] | 
12 | CCc1c(C)c2ccc3c(c2oc1=O)CN(Cc1ccccc1)CO3 | inconclusive: 10.3 µM [cytotoxic, partial curve] | 
13 | Cc1ccccc1N1CCN(CC(=O)Nc2nccs2)CC1 | inconclusive: 20.6 µM [cytotoxic, single point] | 
14 | O=C(Nc1ccc(C(F)(F)F)cc1)C1CCC(CNS(=O)(=O)c2cccc3nsnc23)CC1 (stereo not drawn) | inconclusive: 1.84 µM [cytotoxic, full curve, poor fit] | 
15 | CCN1CCN(C(=O)Cn2c(=O)sc3ccccc32)CC1 | inconclusive: 10.3 µM [rising, partial curve] | 
16 | Cc1ccc(C(=O)OCC(=O)NC(=O)NCc2ccccc2)cc1C | inactive | 
17 | Cc1sc2ncnc(N(C)Cc3cccs3)c2c1C | inconclusive: 29.1 µM [cytotoxic, single point] | 
18 | Cc1nc2ccc(NC(=O)c3ccc([N+](=O)[O-])cc3)cc2s1 | inconclusive: 16.4 µM [cytotoxic, single point] | 
19 | C=CC[C@H](CC(=O)OC(C)(C)C)C(=O)OC[C@@H]1CCCN1C(=O)[C@H](CC=C)CC(=O)N[C@H](CO)Cc1ccccc1 | inactive | 
20 | CCOC(=O)C1CCN(C(c2ccccc2)c2c(O)cc(C)n(Cc3ccco3)c2=O)CC1 (stereo not drawn) | inactive | 
21 | Cc1cc(N2CCCCC2)n2ncc(-c3ccccc3)c2n1 | inconclusive: 14.6 µM [cytotoxic, single point] | 
22 | CCOc1ccc(-c2noc(CCCC(=O)NC3CCCC3)n2)cc1OC | active: 8.2 µM | 
23 | COC(=O)c1ccsc1NC(=O)CSc1nnnn1-c1ccccc1SC | inconclusive: 18.4 µM [cytotoxic, single point] | 

Row | Structure (SMILES) | Potency | activity change, negative = cytotoxicity
24 | CCC1CCCCN1Cc1nc(Cc2ccccc2Cl)no1 (stereo not drawn) | inactive | 
25 | O=C(CSc1nc2c(sc3ccccc32)c(=O)n1-c1ccccc1)NCc1ccco1 | inconclusive: 29.1 µM [cytotoxic, single point] | 
26 | O=C(CSc1ncnc2scc(-c3ccccc3)c12)N1CCN(c2ccccc2F)CC1 | inconclusive: 18.4 µM [cytotoxic, single point] | 
27 | COC(=O)c1ccc(S(=O)(=O)N2CCCN(Cc3cccc(Br)c3F)CC2)n1C | inconclusive: 6.51 µM [cytotoxic, full curve] | 
28 | O=c1[nH]c(=S)c2ncn(-c3ccccc3)c2[nH]1 | inconclusive: 29.1 µM [rising, single point] | 
29 | CNc1ccccc1C(C)(C)c1cc(-c2ccc(F)cc2)no1 | inconclusive: 6.51 µM [cytotoxic, partial curve] | 
30 | CCOc1ccc(NC(=O)CN(c2ccc(C)cc2)S(=O)(=O)c2c(C)nn(C)c2C)cc1 | inconclusive: 3.66 µM [rising, partial curve, poor fit] | 
31 | O=C(N/N=C/c1ccncc1)c1ccccc1OCc1ccc(Br)cc1 | inconclusive: 20.6 µM [cytotoxic, single point] | 
32 | Cc1cc(Cn2nc(C(=O)NCc3cccc(Br)c3)cc2-c2ccccc2)on1 | inactive | 
33 | O=C1C2C3CC(C(Br)C3Br)C2C(=O)N1c1nccs1 (stereo not drawn) | inactive | 
34 | CCOC(=O)N1CCN(c2ccc3nnnn3n2)CC1 | inconclusive: 20.6 µM [rising, single point] | 
35 | CCCCc1nnc(NC(=O)c2ccccc2OCc2c(C)noc2C)s1 | inconclusive: 6.51 µM [cytotoxic, partial curve] | 
36 | CC1(C)OCC(C2CC(c3ccccc3)NS(=O)(=O)O2)O1 (stereo not drawn) | inconclusive: 20.6 µM [rising, partial curve, poor fit] | 
37 | Cc1ccc(NC(=O)CSc2nn(-c3ccc(Cl)cc3)c(=S)s2)cc1S(=O)(=O)N(C)C | active: 20.6 µM | 
38 | CCN(CC)C(=O)c1cccc(-c2csc(C(O)c3ccc(F)c(F)c3)n2)c1 (stereo not drawn) | inactive | 
39 | COc1cccc(CNC(=O)CN2C(=O)CC(c3ccccc3)=Nc3ccccc32)c1 | inconclusive: 16.4 µM [cytotoxic, single point] | 
40 | CC(NC(=O)COc1ccccc1-c1ccccc1)c1ccccc1 (stereo not drawn) | inactive | 
41 | COc1ccc2nc3sc(C(=O)Nc4ccccc4F)cc3cc2c1 | inconclusive: 18.4 µM [rising, partial curve, poor fit] | 
42 | Cn1cc([N+](=O)[O-])c(C(=O)N(Cc2ccccc2)Cc2ccccc2)n1 | inconclusive: 29.1 µM [cytotoxic, single point] | 
43 | Cc1ccc(-c2nc(NC(=O)c3nn(C)cc3[N+](=O)[O-])sc2C)cc1C | active: 14.6 µM | 
44 | C=CCn1c(SCc2nc3ccccc3[nH]2)nnc1-c1ccc(OC)cc1 | active: 4.61 µM | 
45 | CC(C)(C)OC(=O)C[C@H]1C/C=C\C[C@H](CC(=O)N(CCO)Cc2ccccc2)C(=O)NCCOC1=O | inactive | 
46 | CSCCC(NC(=O)c1ccco1)C(=O)N(C)CC(=O)Nc1ccccc1Br (stereo not drawn) | inconclusive: 18.4 µM [cytotoxic, single point] | 

Row | Structure (SMILES) | Potency | activity change, negative = cytotoxicity
47 | CCCCn1c(CN2CCN(c3ccc(F)cc3)CC2)nc2c1c(=O)n(C)c(=O)n2C | inactive | 
48 | CN(C)c1nc(OCCNC(=O)Nc2ccc(Cl)cc2)nc(N(C)C)n1 | inconclusive: 3.26 µM [cytotoxic, partial curve, poor fit] | 
49 | O=C(Cc1ccccc1)Nc1ccccc1N1CCOCC1 | inactive | 
50 | CCN1CCN(C(=O)CCCCCn2c(=O)[nH]c3cc(C(=O)OC)ccc3c2=O)CC1 | inactive | 
51 | Cc1nnc(SCc2ccc(F)cc2)n1NC/C=C/c1ccccc1 | inconclusive: 20.6 µM [cytotoxic, partial curve, poor fit] | 
52 | Cc1ccc(S(=O)(=O)Nc2ccc(-c3cn4ccc(C)cc4n3)cc2)cc1 | inactive | 
53 | CCOc1ccc(NS(=O)(=O)c2ccc3[nH]cc(C(=O)NCc4ccco4)c(=O)c3c2)cc1 | inconclusive: 18.4 µM [rising, single point] | 
54 | C/C(Cc1ccccc1)=N\NC(=O)c1ccccn1 | inconclusive: 9.2 µM [rising, partial curve, poor fit] | 
55 | COc1cc(NC(=O)c2csc(-c3ccncc3)n2)cc(C(=O)Nc2cccc(C(F)(F)F)c2)c1 | inconclusive: 29.1 µM [cytotoxic, single point] and inconclusive: 32.6 µM [cytotoxic, single point] | 
56 | COc1cc(CN(C)Cc2cccc3ccccc23)cc([N+](=O)[O-])c1O | inconclusive: 32.6 µM [rising, partial curve, poor fit] | 
57 | Cc1cc2cc3c(cc2nc1SCC(=O)Nc1nc(C)c(C)s1)OCO3 | inactive | 
58 | CC(=Nc1ccc(Br)cc1)c1sc2ccccc2c1O | inactive | 
59 | O=C(CCCOc1ccc(Br)cc1)Nc1nnc(C2CC2)s1 |  | inconclusive: -30.4% [cytotoxic]
60 | Cc1ccc(N2C(=O)CS(=O)(=O)C23C(=O)N(Cc2cccc(F)c2)c2ccccc23)cc1Cl (stereo not drawn) | inconclusive: 16.4 µM [cytotoxic, single point] | 
61 | O=C(CSc1nc(-c2ccc(Cl)cc2)nc2c1Cc1ccccc1O2)N1CCCCC1 | inconclusive: 13 µM [rising, partial curve] | 
62 | O=C1Nc2ccc(NS(=O)(=O)c3cccs3)c3cccc1c23 | inconclusive: 32.6 µM [cytotoxic, partial curve, poor fit] | 
63 | CCC(C)c1ccccc1NC(=O)COC(=O)C1=COCCO1 (stereo not drawn) | inconclusive: 3.26 µM [rising, partial curve, poor fit] | 
64 | Cc1ccc2[nH]c(=O)c(CN(c3cccc(C)c3C)S(=O)(=O)c3ccccc3)cc2c1 | inconclusive: 2.59 µM [cytotoxic, full curve, poor fit] | 
65 | COc1cccc(-n2c(SCC(=O)NC3CCS(=O)(=O)C3)nc3ccccc3c2=O)c1 (stereo not drawn) | inconclusive: 29.1 µM [rising, single point] | 
66 | Cc1cc(=O)[nH]c(SCC(=O)c2ccc(C(C)C)cc2)n1 | inactive | 
67 | CCOc1ccc(OCCOCCNCCOC)cc1 | inactive | 
68 | O=S(=O)(c1cccc(Br)c1)N1CCN(c2ccnc3cc(Cl)ccc23)CC1 | inconclusive: 0.58 µM [cytotoxic, full curve, poor fit] | 

Nothing new here: 21 of the compounds above.
Row | Structure (SMILES) | Potency | activity change, negative = cytotoxicity
42 | Cn1cc([N+](=O)[O-])c(C(=O)N(Cc2ccccc2)Cc2ccccc2)n1 | inconclusive: 29.1 µM [cytotoxic, single point] | 
43 | Cc1ccc(-c2nc(NC(=O)c3nn(C)cc3[N+](=O)[O-])sc2C)cc1C | active: 14.6 µM | 
44 | C=CCn1c(SCc2nc3ccccc3[nH]2)nnc1-c1ccc(OC)cc1 | active: 4.61 µM | 
45 | CC(C)(C)OC(=O)C[C@H]1C/C=C\C[C@H](CC(=O)N(CCO)Cc2ccccc2)C(=O)NCCOC1=O | inactive | 
46 | CSCCC(NC(=O)c1ccco1)C(=O)N(C)CC(=O)Nc1ccccc1Br (stereo not drawn) | inconclusive: 18.4 µM [cytotoxic, single point] | 
47 | CCCCn1c(CN2CCN(c3ccc(F)cc3)CC2)nc2c1c(=O)n(C)c(=O)n2C | inactive | 
48 | CN(C)c1nc(OCCNC(=O)Nc2ccc(Cl)cc2)nc(N(C)C)n1 | inconclusive: 3.26 µM [cytotoxic, partial curve, poor fit] | 
49 | O=C(Cc1ccccc1)Nc1ccccc1N1CCOCC1 | inactive | 
50 | CCN1CCN(C(=O)CCCCCn2c(=O)[nH]c3cc(C(=O)OC)ccc3c2=O)CC1 | inactive | 
51 | Cc1nnc(SCc2ccc(F)cc2)n1NC/C=C/c1ccccc1 | inconclusive: 20.6 µM [cytotoxic, partial curve, poor fit] | 
52 | Cc1ccc(S(=O)(=O)Nc2ccc(-c3cn4ccc(C)cc4n3)cc2)cc1 | inactive | 
53 | CCOc1ccc(NS(=O)(=O)c2ccc3[nH]cc(C(=O)NCc4ccco4)c(=O)c3c2)cc1 | inconclusive: 18.4 µM [rising, single point] | 
54 | C/C(Cc1ccccc1)=N\NC(=O)c1ccccn1 | inconclusive: 9.2 µM [rising, partial curve, poor fit] | 
55 | COc1cc(NC(=O)c2csc(-c3ccncc3)n2)cc(C(=O)Nc2cccc(C(F)(F)F)c2)c1 | inconclusive: 29.1 µM [cytotoxic, single point] and inconclusive: 32.6 µM [cytotoxic, single point] | 
56 | COc1cc(CN(C)Cc2cccc3ccccc23)cc([N+](=O)[O-])c1O | inconclusive: 32.6 µM [rising, partial curve, poor fit] | 
57 | Cc1cc2cc3c(cc2nc1SCC(=O)Nc1nc(C)c(C)s1)OCO3 | inactive | 
58 | CC(=Nc1ccc(Br)cc1)c1sc2ccccc2c1O | inactive | 
59 | O=C(CCCOc1ccc(Br)cc1)Nc1nnc(C2CC2)s1 |  | inconclusive: -30.4% [cytotoxic]
60 | Cc1ccc(N2C(=O)CS(=O)(=O)C23C(=O)N(Cc2cccc(F)c2)c2ccccc23)cc1Cl (stereo not drawn) | inconclusive: 16.4 µM [cytotoxic, single point] | 
61 | O=C(CSc1nc(-c2ccc(Cl)cc2)nc2c1Cc1ccccc1O2)N1CCCCC1 | inconclusive: 13 µM [rising, partial curve] | 
62 | O=C1Nc2ccc(NS(=O)(=O)c3cccs3)c3cccc1c23 | inconclusive: 32.6 µM [cytotoxic, partial curve, poor fit] | 
